{"source": "paper PMC3050729", "about": "“Novel computational analysis of protein binding array data identifies direct targets of Nkx2.2 in the pancreas”", "note": "Construct, isoform or probe ends are uncertain for at least one entry. A weaker result is weaker than the reference pair of the same experiment. Protein sequences can lack the tags named with them. For some assays here: Results from cells or extracts need not show a direct contact. For some assays here: At least one verdict was read from the data and is not stated in words by the source.", "data": [{"biological_target": "T1, Myc-Nkx2.2 in alphaTC1 nuclear extract (UniProt P42586)", "T1 sequence (looked up, limits assumed)": "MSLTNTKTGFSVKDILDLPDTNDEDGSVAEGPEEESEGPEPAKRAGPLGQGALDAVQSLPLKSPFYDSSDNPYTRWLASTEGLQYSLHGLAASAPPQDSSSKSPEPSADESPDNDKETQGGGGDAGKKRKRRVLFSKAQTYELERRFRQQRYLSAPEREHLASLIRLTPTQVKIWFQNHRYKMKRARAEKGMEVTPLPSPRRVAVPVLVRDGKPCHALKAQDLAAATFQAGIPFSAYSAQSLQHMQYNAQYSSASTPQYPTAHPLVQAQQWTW", "experiment": "EMSA", "details": "pH and temperature not given; protein in a lysate after overexpression; protein details: Myc; label: 32P-dCTP Klenow fill-in", "values": [{"sequence": "TCGACGCGATTTTTCAAGTGGTTTTCAGTAGC / AGCTGCTACTGAAAACCACTTGAAAAATCGCG [Nkx2.2 AAGT consensus]", "binding result": "binds"}, {"sequence": "TCGACGCGATTTTTCGAGTGGTTTTCAGTAGC / AGCTGCTACTGAAAACCACTCGAAAAATCGCG [Nkx2.2 GAGT]", "binding result": "binds more weakly"}]}, {"biological_target": "T2, Nkx2.2 (in vitro translated) (UniProt P42586)", "T2 sequence (looked up, limits assumed)": "T1 sequence (looked up, limits assumed)", "experiment": "EMSA", "details": "pH and temperature not given; protein translated in vitro; protein details: Myc (stated in Fig 1C); label: 32P-dCTP Klenow fill-in", "values": [{"sequence": "ACGAAAAACTGCTAAAGTTCTCTCAAGTGAATTTTGACGTCAAATGAGCCTAG / AGACTAGGCTCATTTGACGTCAAAATTCACTTGAGAGAACTTTAGCAGTTTTT [Gcg -280]", "binding result": "binds"}, {"sequence": "ACGTGTGGGCGGGTCTTGGGAGTCAAGTGGATGAAGACAGTATTTG / CTGCAAATACTGTCTTCATCCACTTGACTCCCAAGACCCGCCCAC [Nkx2.2 -377]", "binding result": "binds"}, {"sequence": "AGCCACTTTATGGCGGGAACTGGAAATAAGTGCTGTGGTCCCGCTGACTTCT / TGCAGAAGTCAGCGGGACCACAGCACTTATTTCCAGTTCCCGCCATAAAGTG [Nkx6.2 -1441]", "binding result": "binds"}, {"sequence": "AGCCCAGAGAACCAAGCTAATAGCCACTTGATTATTTTACTCTAGTCAAATTGTG / TGCCACAATTTGACTAGAGTAAAATAATCAAGTGGCTATTAGCTTGGTTCTCTGG [Tm4sf4 +555]", "binding result": "binds"}, {"sequence": "AGCCCTGGCTACTGGAACCTTGGCCACTTGAGCCCCGTCCACCTCCTGAGCCC / CCGGGGCTCAGGAGGTGGACGGGGCTCAAGTGGCCAAGGTTCCAGTAGCCAGG [Irs4 +1495]", "binding result": "binds"}, {"sequence": "AGTACACACATATCAATAACCCACTCATCCACATTGTATGGAATAAATTTGTAT / AGAATACAAATTTATTCCATACAATGTGGATGAGTGGGTTATTGATATGTGTGT [Gcg -432]", "binding result": "binds"}, {"sequence": "AGTCCAAATATCTTAAGGAGATAAACCACTTGAGAGGAGACTTAATTC / TTGAGAATTAAGTCTCCTCTCAAGTGGTTTATCTCCTTAAGATATTTGG [Frzb -2290]", "binding result": "binds"}, {"sequence": "AGTGTAAAAAATAAATTAATTTTAAAAAAAACACTTAAACGTGAACACAT / TGTATGTGTTCACGTTTAAGTGTTTTTTTTAAAATTAATTTATTTTTTAC [Iapp -1184]", "binding result": "binds"}, {"sequence": "AGTTATGACCCGAGTGAGAACAAAGTACTCAGAATACGGGACACACCTGT / GCAACAGGTGTGTCCCGTATTCTGAGTACTTTGTTCTCACTCGGGTCATA [Spock3 -1044]", "binding result": "binds"}, {"sequence": "CCGCCTAGGCCCGCGTCCCCGCCCACTTCACTGGGCTCAAGGCAGTGG / TGCCCACTGCCTTGAGCCCAGTGAAGTGGGCGGGGACGCGGGCCTAGG [Irs4 -111]", "binding result": "binds"}, {"sequence": "CGCGTCGCTCTCGAGTCCACACACTTGAAAAGAGCCGTTTTAACAAATT / ATGCAATTTGTTAAAACGGCTCTTTTCAAGTGTGTGGACTCGAGAGCGAC [Nkx2.2 -188]", "binding result": "binds"}, {"sequence": "CGCTCCTCCCAGCTGCCAGCCAAGAAGACACTTGACTCCTTGATCGCTGGT / TGAACCAGCGATCAAGGAGTCAAGTGTCTTCTTGGCTGGCAGCTGGGAGGA [Ngn3 -506]", "binding result": "binds"}, {"sequence": "CGGCTGTTAGGTCTTGCCTGCCCCACTTAAGCCCCTGAGACCTGAGGTCT / TGAAGACCTCAGGTCTCAGGGGCTTAAGTGGGGCAGGCAAGACCTAACAGC [Tm4sf4 +912]", "binding result": "binds"}, {"sequence": "CTGAAGGCCTGCCGTAGTTGAGAAGTGAAGTGTCTCCAAGGTTCAAAGAACT / CAGAGTTCTTTGAACCTTGGAGACACTTCACTTCTCAACTACGGCAGGCCTT [Tm4sf4 -5]", "binding result": "binds"}, {"sequence": "GAACAAACACAGGGTGACTCATTGAAGTGTGATGCATGGCTAAAAGCAGA / AGTTCTGCTTTTAGCCATGCATCACACTTCAATGAGTCACCCTGTGTTTG [Chgb -1529]", "binding result": "binds"}, {"sequence": "GCCATTAGTGCCAATGACCCAGCACTCGAGGGTAGGGGGAGCACAGC / ACTGGCTGTGCTCCCCCTACCCTCGAGTGCTGGGTCATTGGCACTAATG [Tm4sf4 -1723]", "binding result": "binds"}, {"sequence": "GCTGCAAGTTTGCTACATACCACTTGTTCGCCCCACTTAACATCAGGAGTGGGCTT / GCTAAGCCCACTCCTGATGTTAAGTGGGGCGAACAAGTGGTATGTAGCAAACTTGC [Nkx2.2 -1502 (-1503 in Fig 4 legend)]", "binding result": "binds"}, {"sequence": "GTCAATATTTTGGTTGAAGCTTAAGGATGAGTACTAGAAATGACAAG / TGACTTGTCATTTCTAGTACTCATCCTTAAGCTTCAACCAAAATATT [Nkx2.2 -716]", "binding result": "binds"}, {"sequence": "GTTAAGCTGGTATGGCTAGTTAAGTGGTTATAGCTGACATATAATGTCT / TGAAGACATTATATGTCAGCTATAACCACTTAACTAGCCATACCAGCTT [Iapp -1955]", "binding result": "binds"}, {"sequence": "TCGACGCGATTTTTCGAGTGGTTTTCAGTAGC / AGCTGCTACTGAAAACCACTCGAAAAATCGCG [Nkx2.2 GAGT]", "binding result": "binds more weakly"}, {"sequence": "TGAGGTTAAAAGAGAGAGAGAATTTTGAAGTGTATCCTTTGGC / AGGCCAAAGGATACACTTCAAAATTCTCTCTCTCTTTTAACC [Chgb -217]", "binding result": "binds"}, {"sequence": "TGCTCATGTGGGCAGAATTAAGTGGAATTAGCTAACAAATTATATAAAAT / TGAATTTTATATAATTTGTTAGCTAATTCCACTTAATTCTGCCCACATGA [Pdx1 -5877]", "binding result": "binds"}, {"sequence": "TGTCCTCAGGCCGCTACATAAAGGCACTCAAGAGACTGGAGGCCCCAGGGAGTTTGGAGG / TGACCTCCAAACTCCCTGGGGCCTCCAGTCTCTTGAGTGCCTTTATGTAGCGGCCTGAGG [Iapp -1355]", "binding result": "binds"}, {"sequence": "TGTCCTCCTCATCCTCTCTGTGGCACTGAACCACTTGAGAGCTACACCTG / TGACAGGTGTAGCTCTCAAGTGGTTCAGTGCCACAGAGAGGATGAGGAGG [Iapp +479]", "binding result": "binds"}]}, {"biological_target": "T2, Nkx2.2 (in vitro translated)", "experiment": "EMSA", "details": "positive control; pH and temperature not given; protein translated in vitro; protein details: Myc (stated in Fig 1C); label: 32P-dCTP Klenow fill-in", "values": [{"sequence": "TGTAACCAGGAGGCAGCCCCTCCAGCAAGCACTTCAGTGTGCTCAGTGGG / AACAGCCCCACTGAGCACACTGAAGTGCTTGCTGGAGGGGCTGCCTCCTGG [Mafa -7762]", "binding result": "binds"}]}, {"biological_target": "T3, Nkx2.2, endogenous in betaTC6 nuclear extract (UniProt P42586)", "T3 sequence (looked up, limits assumed)": "T1 sequence (looked up, limits assumed)", "experiment": "EMSA", "details": "Nkx2.2 antibody, possibly stabilized by interacting factors; pH and temperature not given; protein in an extract; label: 32P-dCTP Klenow fill-in", "values": [{"sequence": "TGCTTTCTGCAGACCTAGCACCAGGCAAGTGTTTGGAAACTGCAGCT / CTGAAGCTGCAGTTTCCAAACACTTGCCTGGTGCTAGGTCTGCAGAA [Ins2 -144]", "binding result": "binds more weakly"}]}, {"biological_target": "T3, Nkx2.2, endogenous in betaTC6 nuclear extract", "experiment": "EMSA", "details": "shift inhibited by Nkx2.2 antibody; pH and temperature not given; protein in an extract; label: 32P-dCTP Klenow fill-in", "values": [{"sequence": "AAGCAGAACTCAGGCAGCAAGGTACTTAATGGTCCCTCCTTCTCCATC / AGAGATGGAGAAGGAGGGACCATTAAGTACCTTGCTGCCTGAGTTCT [Ins2 -477 (Ins -471 in probe list)]", "binding result": "binds"}]}]}
